Results: paper PMC12187939
No constants are given. Whether binding was seen depends on the method and setting. Binding seen in cells or lysates may run through a third protein. Some entries that bind do so weakly or less than the wild type. Tags and fused reporters may be left off the sequences shown.

Protein sequences, listed by entry. Tags and fused reporters are not part of them.
UniProt Q92793: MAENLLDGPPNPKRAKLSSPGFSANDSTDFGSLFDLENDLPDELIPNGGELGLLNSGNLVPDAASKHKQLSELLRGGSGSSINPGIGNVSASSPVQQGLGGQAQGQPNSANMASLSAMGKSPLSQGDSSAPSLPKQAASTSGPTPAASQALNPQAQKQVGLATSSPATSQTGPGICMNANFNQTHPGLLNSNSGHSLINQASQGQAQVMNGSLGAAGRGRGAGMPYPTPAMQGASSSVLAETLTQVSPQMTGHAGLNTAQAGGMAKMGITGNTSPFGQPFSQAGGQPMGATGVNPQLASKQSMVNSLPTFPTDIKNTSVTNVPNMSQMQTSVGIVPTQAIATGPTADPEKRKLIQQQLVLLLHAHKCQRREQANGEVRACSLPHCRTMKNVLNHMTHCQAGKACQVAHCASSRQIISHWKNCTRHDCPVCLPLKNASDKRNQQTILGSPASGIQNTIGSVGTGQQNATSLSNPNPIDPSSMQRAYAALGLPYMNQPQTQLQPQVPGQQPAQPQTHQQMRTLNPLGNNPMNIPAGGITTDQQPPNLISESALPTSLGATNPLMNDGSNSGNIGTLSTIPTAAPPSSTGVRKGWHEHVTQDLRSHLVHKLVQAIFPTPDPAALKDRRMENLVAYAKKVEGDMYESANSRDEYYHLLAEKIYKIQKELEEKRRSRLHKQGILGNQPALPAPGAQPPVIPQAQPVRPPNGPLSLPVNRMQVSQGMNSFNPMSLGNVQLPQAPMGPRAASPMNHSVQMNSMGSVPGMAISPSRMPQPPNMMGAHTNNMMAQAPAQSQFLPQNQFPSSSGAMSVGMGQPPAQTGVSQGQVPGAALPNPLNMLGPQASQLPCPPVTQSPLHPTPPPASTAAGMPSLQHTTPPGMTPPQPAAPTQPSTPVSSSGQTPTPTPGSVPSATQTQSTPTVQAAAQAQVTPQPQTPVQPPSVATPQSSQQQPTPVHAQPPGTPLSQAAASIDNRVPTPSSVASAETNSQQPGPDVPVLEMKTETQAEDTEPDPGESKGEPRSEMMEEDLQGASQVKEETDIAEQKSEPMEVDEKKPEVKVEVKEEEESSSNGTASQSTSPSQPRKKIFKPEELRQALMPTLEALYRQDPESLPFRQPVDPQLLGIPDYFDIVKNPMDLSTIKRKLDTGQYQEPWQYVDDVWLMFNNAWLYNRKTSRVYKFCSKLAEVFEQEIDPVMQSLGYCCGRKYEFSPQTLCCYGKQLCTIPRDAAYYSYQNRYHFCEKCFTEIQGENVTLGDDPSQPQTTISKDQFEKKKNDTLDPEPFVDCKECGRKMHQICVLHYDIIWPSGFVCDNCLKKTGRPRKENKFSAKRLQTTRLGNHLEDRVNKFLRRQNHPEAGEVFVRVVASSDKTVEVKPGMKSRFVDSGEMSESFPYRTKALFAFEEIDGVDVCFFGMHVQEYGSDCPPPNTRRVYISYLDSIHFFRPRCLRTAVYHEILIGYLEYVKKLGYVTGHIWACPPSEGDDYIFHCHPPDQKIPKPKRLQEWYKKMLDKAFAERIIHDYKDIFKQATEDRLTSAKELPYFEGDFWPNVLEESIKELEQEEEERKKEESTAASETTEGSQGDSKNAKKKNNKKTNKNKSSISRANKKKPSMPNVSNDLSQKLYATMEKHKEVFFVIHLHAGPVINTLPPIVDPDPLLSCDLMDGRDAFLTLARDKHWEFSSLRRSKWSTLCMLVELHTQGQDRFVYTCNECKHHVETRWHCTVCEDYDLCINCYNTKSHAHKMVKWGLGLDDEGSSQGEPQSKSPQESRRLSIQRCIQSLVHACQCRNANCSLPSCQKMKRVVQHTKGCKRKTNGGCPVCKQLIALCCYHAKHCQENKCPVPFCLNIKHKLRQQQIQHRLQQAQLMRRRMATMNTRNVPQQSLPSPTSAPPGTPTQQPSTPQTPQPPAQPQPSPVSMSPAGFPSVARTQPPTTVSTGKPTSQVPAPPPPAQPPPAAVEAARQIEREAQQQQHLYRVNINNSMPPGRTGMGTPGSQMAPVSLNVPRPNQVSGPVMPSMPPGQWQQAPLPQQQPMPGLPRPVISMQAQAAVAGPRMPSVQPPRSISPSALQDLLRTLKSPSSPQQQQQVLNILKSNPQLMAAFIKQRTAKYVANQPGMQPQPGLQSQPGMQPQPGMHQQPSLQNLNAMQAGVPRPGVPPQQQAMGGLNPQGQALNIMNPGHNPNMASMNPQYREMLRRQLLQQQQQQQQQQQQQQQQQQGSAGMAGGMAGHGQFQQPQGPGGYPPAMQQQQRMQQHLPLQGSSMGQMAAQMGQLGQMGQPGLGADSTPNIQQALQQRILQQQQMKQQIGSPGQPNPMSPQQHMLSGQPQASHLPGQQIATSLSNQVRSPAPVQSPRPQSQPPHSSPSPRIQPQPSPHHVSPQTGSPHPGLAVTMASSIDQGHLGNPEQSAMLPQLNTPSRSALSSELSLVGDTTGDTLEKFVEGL
UniProt O60675: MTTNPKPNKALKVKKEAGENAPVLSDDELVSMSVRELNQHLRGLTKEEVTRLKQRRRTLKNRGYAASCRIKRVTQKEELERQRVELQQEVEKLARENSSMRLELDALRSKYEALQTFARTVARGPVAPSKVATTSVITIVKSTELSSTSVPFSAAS

Molecular target: T1, FLAG-tagged WT NRF2 (nuclear factor erythroid 2-related factor 2), expressed in HEK293 (UniProt Q16236)
T1 sequence: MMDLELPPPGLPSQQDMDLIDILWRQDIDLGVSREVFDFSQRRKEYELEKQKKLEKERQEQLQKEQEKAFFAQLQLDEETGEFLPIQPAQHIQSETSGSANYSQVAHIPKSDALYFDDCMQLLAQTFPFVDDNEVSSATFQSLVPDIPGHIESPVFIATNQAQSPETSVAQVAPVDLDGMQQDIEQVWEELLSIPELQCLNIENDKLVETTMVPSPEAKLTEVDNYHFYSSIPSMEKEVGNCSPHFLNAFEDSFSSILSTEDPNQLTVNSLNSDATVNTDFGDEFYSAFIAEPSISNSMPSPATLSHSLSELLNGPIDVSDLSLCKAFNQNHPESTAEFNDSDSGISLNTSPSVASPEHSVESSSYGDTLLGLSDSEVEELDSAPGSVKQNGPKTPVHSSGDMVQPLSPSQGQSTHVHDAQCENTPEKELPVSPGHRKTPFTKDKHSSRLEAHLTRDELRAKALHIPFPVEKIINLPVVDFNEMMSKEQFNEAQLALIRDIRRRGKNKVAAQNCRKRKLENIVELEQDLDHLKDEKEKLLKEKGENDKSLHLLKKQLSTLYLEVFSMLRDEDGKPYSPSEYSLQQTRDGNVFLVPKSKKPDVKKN
Experiment: co-IP; FLAG immunoprecipitation (anti-FLAG M2 magnetic beads, overnight at 4 °C) from lysates of HEK293 cells transfected with FLAG-tagged NRF2 constructs or luciferase, with or without GFP-tagged CBP; FLAG-IP buffer 50 mM Tris-HCl, 150 mM NaCl, 1 mM EDTA, 1% Triton X-100; western blot

Substance | binding
GFP-tagged CBP, expressed in HEK293 (from UniProt Q92793 1-2442) | binds
MAFK (sMAF protein) in HEK293 lysate (from UniProt O60675 1-156) | binds
